Results are given in words; binding and its absence hold for the method and conditions named. Some entries that bind do so weakly or less than the wild type.
Target: human complement C3d (human) (UniProt P01024)
Assay: ELISA; competitive ELISA: C3d coated (1 ug/well), incubated with Efb prior to addition of eLtaS (9.6-1.2 uM); bound Efb detected with anti-Efb antibodies; both purified

Sequences of proteins named here, by UniProt entry; tags and fusion partners are left off. Residues count along the entry.
UniProt P01024, residues 1002-1303: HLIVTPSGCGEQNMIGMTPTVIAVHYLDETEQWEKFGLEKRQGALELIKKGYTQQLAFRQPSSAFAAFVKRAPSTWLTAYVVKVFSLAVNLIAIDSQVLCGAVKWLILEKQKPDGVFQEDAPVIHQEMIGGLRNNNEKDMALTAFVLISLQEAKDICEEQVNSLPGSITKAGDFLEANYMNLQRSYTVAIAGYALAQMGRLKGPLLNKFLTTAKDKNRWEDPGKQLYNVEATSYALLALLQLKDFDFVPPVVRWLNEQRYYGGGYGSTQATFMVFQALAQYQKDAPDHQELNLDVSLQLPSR
UniProt A6QG59, residues 30-165: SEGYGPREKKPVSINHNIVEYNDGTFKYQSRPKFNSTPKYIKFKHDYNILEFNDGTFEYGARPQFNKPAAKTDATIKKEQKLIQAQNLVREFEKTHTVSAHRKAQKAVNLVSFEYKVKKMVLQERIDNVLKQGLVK

“S. aureus Efb (extracellular fibrinogen binding protein) (from UniProt A6QG59 30-165)” was tested, and the binding was “binds”.

— PMC4657049
